The target in the test is HA–G3BP1 (human) (UniProt Q13283). The test is described as follows: affinity purification with mass spectrometry; SILAC-labelled HEK293T cells transfected with HA-G3BP1, treated with ICA (heavy) or DMSO (light); lysate on anti-HA magnetic beads at 4 °C overnight; SDS-PAGE, LC-MS/MS.

Sequences of proteins named here, by UniProt entry; tags and fusion partners are left off.
UniProt Q13283: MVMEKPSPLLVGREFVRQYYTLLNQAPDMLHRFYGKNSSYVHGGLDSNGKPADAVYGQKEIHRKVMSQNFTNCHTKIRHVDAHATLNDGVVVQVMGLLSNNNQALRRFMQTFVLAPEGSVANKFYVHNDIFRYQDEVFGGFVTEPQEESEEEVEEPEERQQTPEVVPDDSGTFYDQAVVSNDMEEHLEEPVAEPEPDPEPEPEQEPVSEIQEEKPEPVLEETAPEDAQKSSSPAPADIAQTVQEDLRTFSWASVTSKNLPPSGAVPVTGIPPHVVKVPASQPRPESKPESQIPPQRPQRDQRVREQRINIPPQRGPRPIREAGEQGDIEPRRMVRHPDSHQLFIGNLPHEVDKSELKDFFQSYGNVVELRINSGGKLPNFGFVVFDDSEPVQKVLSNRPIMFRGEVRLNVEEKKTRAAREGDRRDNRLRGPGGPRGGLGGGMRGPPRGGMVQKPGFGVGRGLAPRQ
UniProt P38919: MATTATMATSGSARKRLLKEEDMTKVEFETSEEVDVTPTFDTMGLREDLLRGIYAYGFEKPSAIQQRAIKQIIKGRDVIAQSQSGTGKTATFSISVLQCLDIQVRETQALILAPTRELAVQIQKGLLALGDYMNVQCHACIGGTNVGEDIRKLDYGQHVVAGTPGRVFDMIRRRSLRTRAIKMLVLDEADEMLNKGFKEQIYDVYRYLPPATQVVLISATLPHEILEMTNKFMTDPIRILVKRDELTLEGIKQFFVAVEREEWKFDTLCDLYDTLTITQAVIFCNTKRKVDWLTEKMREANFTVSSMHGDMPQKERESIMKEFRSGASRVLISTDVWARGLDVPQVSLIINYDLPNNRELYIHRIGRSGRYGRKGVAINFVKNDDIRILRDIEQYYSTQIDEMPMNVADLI
UniProt O00425: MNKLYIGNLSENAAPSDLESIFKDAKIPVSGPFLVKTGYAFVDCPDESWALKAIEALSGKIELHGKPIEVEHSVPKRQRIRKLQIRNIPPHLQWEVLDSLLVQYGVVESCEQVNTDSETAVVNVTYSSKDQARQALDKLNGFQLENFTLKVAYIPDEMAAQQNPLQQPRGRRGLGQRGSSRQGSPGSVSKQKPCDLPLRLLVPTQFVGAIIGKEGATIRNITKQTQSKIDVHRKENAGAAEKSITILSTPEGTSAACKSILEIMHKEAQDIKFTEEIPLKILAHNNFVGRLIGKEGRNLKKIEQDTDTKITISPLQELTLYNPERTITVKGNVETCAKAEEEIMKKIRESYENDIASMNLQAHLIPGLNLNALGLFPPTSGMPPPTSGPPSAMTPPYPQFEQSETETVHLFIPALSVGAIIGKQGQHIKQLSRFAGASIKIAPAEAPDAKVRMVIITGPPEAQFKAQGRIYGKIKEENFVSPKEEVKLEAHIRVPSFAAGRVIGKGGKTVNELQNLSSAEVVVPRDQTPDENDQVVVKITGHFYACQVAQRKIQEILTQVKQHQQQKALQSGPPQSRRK

No constants are given. Whether binding was seen depends on the method and setting. In cells and extracts the contact can be indirect. Here binding means that the protein was enriched with, or labelled near, the bait; the list need not be complete.

Regarding “eukaryotic translation initiation factor 4A3 (from UniProt P38919 1-411)”, the binding entry is recorded as “binds”. “insulin-like growth factor 2 mRNA-binding protein 3 (from UniProt O00425 1-579)”: the binding result was “binds”.

For the origin of these results see article PMC12866838, “Targeting G3BP1 Condensate Topology Promotes Stress Granule Assembly via m^6A‐IGF2BP1 for Ischemic Stroke Rescue” (Advanced Science, 2025).
